{"source": "patent US20220054402A1", "about": "“COMPOSITIONS AND METHODS FOR EXTRACTING, STABILIZING, AND MAN[…] DOSAGE FORMS OF PSILOCIN, P[…], ENTHEOGENS, AND MEDICINAL MUSHROOMS AS NANO-D[…] DELIVERY STRUCTURES” (priority 2020, published 2022)", "origin": "cited, not measured here", "conditions": "oral ingestion", "note": "At least one compound was matched to its structure with a doubt left."}
{"molecule": "CN(C)CCc1c[nH]c2cccc(OP(=O)(O)O)c12", "note": "[psilocybin, 4-phosphoryloxy-N,N-dimethyltryptamine]", "values": [{"measurement": "reported onset time of effects from ingesting", "value": "> 30", "unit": "min"}]}
